According to the supplement of paper PMC10849652:
The list shows a part of the results.

Chains of the proteins cited; added tags and fusions are not shown. Lines headed by an entry give the natural chain unless they say otherwise; changes in a name come on top.
UniProt P68366, whole entry, looked up: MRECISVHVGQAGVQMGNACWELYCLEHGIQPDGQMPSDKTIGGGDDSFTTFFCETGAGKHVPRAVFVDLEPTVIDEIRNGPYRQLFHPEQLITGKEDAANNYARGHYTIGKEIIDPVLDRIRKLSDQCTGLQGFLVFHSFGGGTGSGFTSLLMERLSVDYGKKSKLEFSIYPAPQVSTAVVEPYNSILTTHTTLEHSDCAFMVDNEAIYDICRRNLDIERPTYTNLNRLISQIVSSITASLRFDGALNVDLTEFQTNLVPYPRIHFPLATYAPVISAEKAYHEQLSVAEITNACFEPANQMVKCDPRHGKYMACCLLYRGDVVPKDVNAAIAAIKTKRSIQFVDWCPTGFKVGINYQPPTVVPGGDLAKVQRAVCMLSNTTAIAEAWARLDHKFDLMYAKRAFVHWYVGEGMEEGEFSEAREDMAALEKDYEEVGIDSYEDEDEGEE
UniProt Q7Z6J9: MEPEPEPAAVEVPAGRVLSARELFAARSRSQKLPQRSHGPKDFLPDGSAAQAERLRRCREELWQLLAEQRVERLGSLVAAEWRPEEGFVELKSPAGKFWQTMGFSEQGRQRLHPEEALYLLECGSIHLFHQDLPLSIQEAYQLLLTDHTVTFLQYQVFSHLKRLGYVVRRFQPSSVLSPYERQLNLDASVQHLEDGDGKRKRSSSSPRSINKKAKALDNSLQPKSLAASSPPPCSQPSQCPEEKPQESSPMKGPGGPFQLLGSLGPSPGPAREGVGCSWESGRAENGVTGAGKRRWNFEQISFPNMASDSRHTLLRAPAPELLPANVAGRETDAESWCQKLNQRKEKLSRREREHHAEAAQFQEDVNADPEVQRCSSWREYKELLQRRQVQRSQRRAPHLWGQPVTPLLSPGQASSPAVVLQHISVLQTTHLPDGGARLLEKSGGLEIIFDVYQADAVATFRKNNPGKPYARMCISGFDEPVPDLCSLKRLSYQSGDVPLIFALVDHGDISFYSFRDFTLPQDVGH
UniProt Q16881, whole entry, looked up: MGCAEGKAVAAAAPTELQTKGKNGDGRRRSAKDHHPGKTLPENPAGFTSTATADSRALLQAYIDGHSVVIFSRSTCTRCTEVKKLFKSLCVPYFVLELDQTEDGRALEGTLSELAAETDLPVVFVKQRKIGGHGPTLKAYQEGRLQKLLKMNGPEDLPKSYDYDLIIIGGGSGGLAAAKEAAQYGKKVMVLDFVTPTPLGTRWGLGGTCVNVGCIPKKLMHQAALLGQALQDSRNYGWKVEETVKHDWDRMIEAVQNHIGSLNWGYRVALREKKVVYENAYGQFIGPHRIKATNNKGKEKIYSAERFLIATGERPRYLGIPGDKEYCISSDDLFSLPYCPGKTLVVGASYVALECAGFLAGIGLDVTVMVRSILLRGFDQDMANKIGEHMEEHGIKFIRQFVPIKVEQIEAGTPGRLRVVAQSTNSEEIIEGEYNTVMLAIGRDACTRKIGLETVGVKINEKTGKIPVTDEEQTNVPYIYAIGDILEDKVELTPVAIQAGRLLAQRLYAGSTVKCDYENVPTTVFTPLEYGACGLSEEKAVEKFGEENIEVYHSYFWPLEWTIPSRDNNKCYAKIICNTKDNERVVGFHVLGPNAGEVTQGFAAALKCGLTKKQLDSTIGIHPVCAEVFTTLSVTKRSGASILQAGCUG
UniProt Q9BQE3, whole entry, looked up: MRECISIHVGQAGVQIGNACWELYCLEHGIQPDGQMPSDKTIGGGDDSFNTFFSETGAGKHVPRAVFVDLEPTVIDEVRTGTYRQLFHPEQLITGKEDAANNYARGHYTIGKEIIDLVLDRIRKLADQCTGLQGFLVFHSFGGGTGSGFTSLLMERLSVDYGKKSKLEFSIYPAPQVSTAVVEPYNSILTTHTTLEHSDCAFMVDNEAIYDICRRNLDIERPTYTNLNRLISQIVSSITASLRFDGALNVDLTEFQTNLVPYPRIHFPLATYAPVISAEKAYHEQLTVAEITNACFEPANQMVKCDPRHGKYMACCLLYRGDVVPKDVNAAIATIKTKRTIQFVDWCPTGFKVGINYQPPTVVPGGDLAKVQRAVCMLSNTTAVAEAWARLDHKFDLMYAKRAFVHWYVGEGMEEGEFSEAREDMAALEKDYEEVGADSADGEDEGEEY
UniProt Q8NBM4: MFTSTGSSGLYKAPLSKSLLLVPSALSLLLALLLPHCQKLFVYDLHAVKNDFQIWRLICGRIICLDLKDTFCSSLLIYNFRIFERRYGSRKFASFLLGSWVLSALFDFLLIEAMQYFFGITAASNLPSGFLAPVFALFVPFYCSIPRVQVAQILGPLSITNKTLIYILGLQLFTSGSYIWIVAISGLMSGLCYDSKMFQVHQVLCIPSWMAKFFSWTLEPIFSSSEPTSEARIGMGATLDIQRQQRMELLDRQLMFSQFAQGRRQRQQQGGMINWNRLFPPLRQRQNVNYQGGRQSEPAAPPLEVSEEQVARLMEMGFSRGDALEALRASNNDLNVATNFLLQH
UniProt Q96AE7: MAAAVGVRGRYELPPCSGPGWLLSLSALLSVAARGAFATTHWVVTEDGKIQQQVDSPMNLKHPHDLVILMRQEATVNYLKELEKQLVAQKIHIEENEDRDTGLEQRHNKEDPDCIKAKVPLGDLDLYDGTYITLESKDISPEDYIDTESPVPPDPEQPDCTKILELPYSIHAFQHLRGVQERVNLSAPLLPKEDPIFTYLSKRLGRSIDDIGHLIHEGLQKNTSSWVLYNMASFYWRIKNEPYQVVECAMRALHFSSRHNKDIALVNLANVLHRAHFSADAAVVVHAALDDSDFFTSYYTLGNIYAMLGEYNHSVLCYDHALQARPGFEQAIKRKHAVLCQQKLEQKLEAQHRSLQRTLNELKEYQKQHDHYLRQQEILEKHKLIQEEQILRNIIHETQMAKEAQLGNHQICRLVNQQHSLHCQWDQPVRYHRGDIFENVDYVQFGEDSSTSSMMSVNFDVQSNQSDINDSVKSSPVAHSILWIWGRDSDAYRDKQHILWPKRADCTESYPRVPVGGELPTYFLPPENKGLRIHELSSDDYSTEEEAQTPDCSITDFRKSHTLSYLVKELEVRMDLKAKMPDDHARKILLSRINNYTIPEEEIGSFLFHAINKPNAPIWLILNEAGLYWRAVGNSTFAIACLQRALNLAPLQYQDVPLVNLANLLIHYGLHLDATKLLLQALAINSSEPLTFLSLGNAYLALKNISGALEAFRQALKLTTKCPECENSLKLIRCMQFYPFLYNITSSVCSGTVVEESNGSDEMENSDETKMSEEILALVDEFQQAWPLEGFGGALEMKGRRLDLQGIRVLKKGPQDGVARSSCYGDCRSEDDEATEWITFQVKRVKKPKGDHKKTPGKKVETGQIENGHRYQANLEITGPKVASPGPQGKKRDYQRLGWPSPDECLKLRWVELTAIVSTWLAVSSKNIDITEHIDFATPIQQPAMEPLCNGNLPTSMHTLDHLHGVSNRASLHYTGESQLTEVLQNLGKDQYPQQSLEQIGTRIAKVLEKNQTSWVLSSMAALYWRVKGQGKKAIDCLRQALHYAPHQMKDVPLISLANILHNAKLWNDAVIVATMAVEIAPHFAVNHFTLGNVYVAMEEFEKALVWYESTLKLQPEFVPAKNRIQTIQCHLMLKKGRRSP
UniProt P63146, whole entry, looked up: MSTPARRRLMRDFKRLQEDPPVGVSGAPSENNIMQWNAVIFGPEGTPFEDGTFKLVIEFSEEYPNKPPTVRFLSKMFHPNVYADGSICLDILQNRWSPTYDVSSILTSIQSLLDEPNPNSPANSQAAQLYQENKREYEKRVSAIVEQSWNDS
UniProt Q16763: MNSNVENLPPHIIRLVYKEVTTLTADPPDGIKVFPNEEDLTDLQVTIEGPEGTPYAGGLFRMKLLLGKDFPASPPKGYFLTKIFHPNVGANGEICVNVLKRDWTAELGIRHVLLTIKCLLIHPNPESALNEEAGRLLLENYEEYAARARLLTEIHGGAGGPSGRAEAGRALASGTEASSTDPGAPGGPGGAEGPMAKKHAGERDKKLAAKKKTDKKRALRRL
UniProt Q9NPD8: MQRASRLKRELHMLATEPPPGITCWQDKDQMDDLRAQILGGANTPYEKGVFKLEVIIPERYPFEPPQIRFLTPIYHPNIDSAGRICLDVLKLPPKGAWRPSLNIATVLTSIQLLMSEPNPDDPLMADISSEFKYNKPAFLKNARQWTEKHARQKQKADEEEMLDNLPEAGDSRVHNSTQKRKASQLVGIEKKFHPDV
UniProt Q13454: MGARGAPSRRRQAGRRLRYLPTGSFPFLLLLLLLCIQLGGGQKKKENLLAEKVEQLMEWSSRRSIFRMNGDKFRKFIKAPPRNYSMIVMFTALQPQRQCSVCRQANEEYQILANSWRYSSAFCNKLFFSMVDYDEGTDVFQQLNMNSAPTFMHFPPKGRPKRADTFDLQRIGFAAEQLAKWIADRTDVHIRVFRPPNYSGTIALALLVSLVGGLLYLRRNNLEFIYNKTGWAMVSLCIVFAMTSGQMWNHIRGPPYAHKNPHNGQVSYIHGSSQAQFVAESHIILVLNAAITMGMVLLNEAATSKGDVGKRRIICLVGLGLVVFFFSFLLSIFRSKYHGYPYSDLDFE
UniProt Q14157: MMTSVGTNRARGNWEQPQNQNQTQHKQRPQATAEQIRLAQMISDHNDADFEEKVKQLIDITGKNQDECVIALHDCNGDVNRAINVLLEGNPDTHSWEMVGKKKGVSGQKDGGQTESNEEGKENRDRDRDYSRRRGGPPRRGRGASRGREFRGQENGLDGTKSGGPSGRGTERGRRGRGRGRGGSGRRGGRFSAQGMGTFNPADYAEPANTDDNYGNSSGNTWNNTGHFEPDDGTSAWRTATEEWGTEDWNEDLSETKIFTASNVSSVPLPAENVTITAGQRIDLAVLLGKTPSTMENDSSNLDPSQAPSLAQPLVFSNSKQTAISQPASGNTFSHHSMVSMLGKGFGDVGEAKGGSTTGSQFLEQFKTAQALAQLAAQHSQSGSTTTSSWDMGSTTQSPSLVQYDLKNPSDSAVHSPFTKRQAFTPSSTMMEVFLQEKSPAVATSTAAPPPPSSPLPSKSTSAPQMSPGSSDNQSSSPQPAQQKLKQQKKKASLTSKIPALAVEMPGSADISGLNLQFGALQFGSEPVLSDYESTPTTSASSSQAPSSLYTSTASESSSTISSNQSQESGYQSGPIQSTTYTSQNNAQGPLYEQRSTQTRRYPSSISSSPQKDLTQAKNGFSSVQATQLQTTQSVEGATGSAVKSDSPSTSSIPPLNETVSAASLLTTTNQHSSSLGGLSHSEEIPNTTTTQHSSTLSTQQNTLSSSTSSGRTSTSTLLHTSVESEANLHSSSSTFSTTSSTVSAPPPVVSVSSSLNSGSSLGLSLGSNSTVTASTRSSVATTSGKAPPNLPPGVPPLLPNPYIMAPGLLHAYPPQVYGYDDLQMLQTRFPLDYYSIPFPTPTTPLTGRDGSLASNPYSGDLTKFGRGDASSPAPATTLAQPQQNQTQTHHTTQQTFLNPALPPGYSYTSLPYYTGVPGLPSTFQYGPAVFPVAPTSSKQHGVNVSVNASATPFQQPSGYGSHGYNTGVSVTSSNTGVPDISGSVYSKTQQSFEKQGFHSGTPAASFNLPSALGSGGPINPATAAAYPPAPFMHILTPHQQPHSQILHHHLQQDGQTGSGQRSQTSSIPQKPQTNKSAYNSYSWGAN
UniProt Q01081: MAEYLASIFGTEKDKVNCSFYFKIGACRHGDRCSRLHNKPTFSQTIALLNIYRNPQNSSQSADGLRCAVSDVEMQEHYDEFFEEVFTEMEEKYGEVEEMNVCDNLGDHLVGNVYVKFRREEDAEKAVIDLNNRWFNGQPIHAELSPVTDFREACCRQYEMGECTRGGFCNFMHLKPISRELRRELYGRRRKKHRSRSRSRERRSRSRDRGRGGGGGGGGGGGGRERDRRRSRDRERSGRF
UniProt P04818: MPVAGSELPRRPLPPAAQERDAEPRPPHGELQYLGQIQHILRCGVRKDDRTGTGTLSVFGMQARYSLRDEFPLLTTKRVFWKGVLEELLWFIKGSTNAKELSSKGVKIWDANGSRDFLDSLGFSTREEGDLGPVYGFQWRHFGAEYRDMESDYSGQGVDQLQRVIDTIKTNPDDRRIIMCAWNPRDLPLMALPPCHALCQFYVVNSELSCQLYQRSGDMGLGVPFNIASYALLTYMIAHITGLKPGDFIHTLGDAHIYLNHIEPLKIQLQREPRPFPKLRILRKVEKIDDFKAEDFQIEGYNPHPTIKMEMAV
UniProt Q969T4: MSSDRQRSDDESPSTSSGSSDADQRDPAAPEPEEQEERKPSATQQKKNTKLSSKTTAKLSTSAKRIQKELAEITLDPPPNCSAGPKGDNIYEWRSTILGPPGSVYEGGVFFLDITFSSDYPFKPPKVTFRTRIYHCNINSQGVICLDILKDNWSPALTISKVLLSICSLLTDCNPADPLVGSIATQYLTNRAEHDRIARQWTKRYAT
UniProt P62256: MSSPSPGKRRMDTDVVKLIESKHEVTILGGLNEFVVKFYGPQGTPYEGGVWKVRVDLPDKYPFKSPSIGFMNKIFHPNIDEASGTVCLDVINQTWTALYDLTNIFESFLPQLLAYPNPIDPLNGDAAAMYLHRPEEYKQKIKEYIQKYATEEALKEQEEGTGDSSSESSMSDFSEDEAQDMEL

Legend:
Assay in all cases: log2 fold change, soluble protein after heating vs DMSO (PISA); higher = thermal stabilisation; K562 cells, 10 uM, 30 min; active = over 0.2 and 3.5 SD of the protein, either way, in both replicates (recomputed)
bafetinib = compound: Cc1ccc(NC(=O)c2ccc(CN3CC[C@H](N(C)C)C3)c(C(F)(F)F)c2)cc1Nc1nccc(-c2cncnc2)n1 [bafetinib]
In short: (§1)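 Values are thermal stability changes relative to control samples and are taken from duplicates. They are stated as log2 fold changes. Before quantification by TMTpro 16plex LC-MS/MS with equalised channel sums, K562 cells at 2×10^6 cells/mL were treated with 10 μM compound for 30 min, heated in aliquots for 3 min across 48°C-58°C, pooled, extracted in PBS with 0.5% NP-40 at 4°C, and centrifuged at 21,000xg for 90 min to give the soluble supernatant.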

[1] = compound: Cc1cccc(CC(=O)N2CCc3c2ccc(-c2cn(C)c4ncnc(N)c24)c3F)n1
In short: as §1

nilotinib = compound: Cc1cn(-c2cc(NC(=O)c3ccc(C)c(Nc4nccc(-c5cccnc5)n4)c3)cc(C(F)(F)F)c2)cn1 [nilotinib]
In short: as §1

[2] = compound: Cc1nc(Nc2n[nH]c3c2CN(C(=O)N[C@H](CN(C)C)c2ccccc2)C3(C)C)c2sccc2n1
In short: as §1

dasatinib = compound: Cc1nc(Nc2ncc(C(=O)Nc3c(C)cccc3Cl)s2)cc(N2CCN(CCO)CC2)n1 [dasatinib]
In short: as §1

[3] = compound: Cc1ncc(-c2ccnc(Nc3ccc(S(C)(=O)=O)cc3)n2)n1C(C)C
In short: as §1

[4] = compound: Cn1cc(-c2ccc3c(c2)CCN3C(=O)Cc2cccc(C(F)(F)F)c2)c2c(N)ncnc21
In short: as §1

[5] = compound: Cn1cc(-c2ccc3nnc(C(F)(F)c4ccc5ncccc5c4)n3n2)cn1
In short: as §1

tipifarnib = compound: Cn1cncc1[C@@](N)(c1ccc(Cl)cc1)c1ccc2c(c1)c(-c1cccc(Cl)c1)cc(=O)n2C [tipifarnib]
In short: as §1

mubritinib = compound: FC(F)(F)c1ccc(/C=C/c2nc(COc3ccc(CCCCn4ccnn4)cc3)co2)cc1 [mubritinib]
In short: as §1

[6] = compound: NC(=O)Nc1cc(-c2cccc(F)c2)sc1C(=O)N[C@H]1CCCNC1
In short: as §1

[7] = compound: NC(=O)c1cnc(N[C@@H]2CCCC[C@@H]2N)nc1Nc1cccc(-n2nccn2)c1
In short: as §1

[8] = compound: NC1(c2ccc(-c3nc4ccn5c(=O)[nH]nc5c4cc3-c3ccccc3)cc2)CCC1
In short: as §1

[9] = compound: NCC(=O)Nc1ccc(-n2nc(C(F)(F)F)cc2-c2ccc3c(ccc4ccccc43)c2)cc1
In short: as §1

entinostat = compound: Nc1ccccc1NC(=O)c1ccc(CNC(=O)OCc2cccnc2)cc1 [entinostat]
In short: as §1

vorinostat = compound: O=C(CCCCCCC(=O)Nc1ccccc1)NO [vorinostat]
In short: as §1

citarinostat = compound: O=C(CCCCCCNC(=O)c1cnc(N(c2ccccc2)c2ccccc2Cl)nc1)NO [citarinostat]
In short: as §1

silmitasertib = compound: O=C(O)c1ccc2c(c1)nc(Nc1cccc(Cl)c1)c1ccncc12 [silmitasertib]
In short: as §1

[10] = compound: O=C1NC(=O)C(c2cnc3ccccn23)=C1c1cn2c3c(cc(F)cc13)CN(C(=O)N1CCCCC1)CC2
In short: as §1

[11] = compound: c1cc(OCCN2CCCCC2)cc(-c2n[nH]c3ccc(-c4nnc[nH]4)cc23)c1
In short: as §1

Target	log2 fold change (bafetinib)	log2 fold change [1]	log2 fold change (nilotinib)	log2 fold change [2]	log2 fold change (dasatinib)	log2 fold change [3]	log2 fold change [4]	log2 fold change [5]	log2 fold change (tipifarnib)	log2 fold change (mubritinib)	log2 fold change [6]	log2 fold change [7]	log2 fold change [8]	log2 fold change [9]	log2 fold change (entinostat)	log2 fold change (vorinostat)	log2 fold change (citarinostat)	log2 fold change (silmitasertib)	log2 fold change [10]	log2 fold change [11]
TUBA4A (UniProt P68366)	inactive: 0.038	inactive: -0.028	inactive: -0.011	inactive: 0.008	inactive: -0.102	inactive: -0.009	inactive: 0.047	inactive: 0.051	inactive: -0.073	inactive: 0.073	inactive: 0.004	inactive: -0.02	inactive: -0.063	inactive: 0.028	inactive: -0.024	inactive: 0.062	inactive: 0.031	inactive: -0.065	inactive: -0.059	inactive: 0.009
TSEN54 (UniProt Q7Z6J9)	inactive: -0.176	inactive: -0.004	inactive: -0.103	inactive: -0.102	inactive: -0.114	inactive: 0.039	inactive: 0.045	inactive: 0.039	inactive: 0.03	inactive: -0.062	inactive: -0.062	inactive: -0.084	inactive: 0.041	inactive: 0.204	inactive: 0.113	inactive: 0.052	inactive: -0.038	inactive: -0.006	inactive: -0.234	inactive: 0.076
TXNRD1 (UniProt Q16881)	inactive: -0.012	inactive: -0.011	inactive: 0.097	inactive: -0.013	inactive: -0.013	inactive: -0.002	inactive: 0.067	inactive: 0.021	inactive: -0.107	active: 0.225	inactive: -0.082	inactive: -0.052	inactive: -0.077	inactive: -0.007	inactive: -0.027	inactive: -0.005	inactive: 0.017	inactive: -0.036	inactive: -0.122	inactive: 0.006
TUBA1C (UniProt Q9BQE3)	inactive: -0.03	inactive: 0.005	inactive: 0.043	inactive: 0.005	inactive: -0.088	inactive: -0.024	inactive: 0.069	inactive: 0.028	inactive: -0.015	inactive: 0.025	inactive: 0.02	inactive: 0.028	inactive: -0.035	inactive: 0.008	inactive: -0.024	inactive: 0.009	inactive: -0.003	inactive: -0.015	inactive: -0.005	inactive: -0.025
UBAC2 (UniProt Q8NBM4)	inactive: 0.062	inactive: 0.088	inactive: 0.092	inactive: -0.207	inactive: 0.074	inactive: 0.065	inactive: 0.051	inactive: 0.055	inactive: -0.001	inactive: -0.079	inactive: -0.008	inactive: 0.007	inactive: -0.059	inactive: 0.107	inactive: 0.068	inactive: 0.069	inactive: 0.032	inactive: 0.055	inactive: 0.077	inactive: 0.002
TTC17 (UniProt Q96AE7)	inactive: -0.04	inactive: 0.039	inactive: 0.03	inactive: 0.134	inactive: 0.038	inactive: -0.028	inactive: -0.052	inactive: 0.015	inactive: 0.155	inactive: 0.046	inactive: 0.012	inactive: -0.001	inactive: 0.017	inactive: -0.004	inactive: -0.039	inactive: 0.043	inactive: 0.028	inactive: 0	inactive: 0.066	inactive: -0.106
UBE2B (UniProt P63146)	inactive: -0.051	inactive: -0.171	inactive: -0.074	inactive: 0.017	inactive: -0.062	inactive: 0.024	inactive: -0.045	inactive: 0.007	inactive: -0.033	inactive: -0.02	inactive: 0.074	inactive: -0.089	inactive: -0.133	inactive: -0.008	inactive: 0.077	inactive: 0.106	inactive: 0.072	inactive: -0.007	inactive: 0.023	inactive: -0.037
UBE2S (UniProt Q16763)	inactive: -0.025	inactive: -0.08	inactive: -0.008	inactive: -0.017	inactive: 0.001	inactive: 0.04	inactive: -0.002	inactive: -0.037	inactive: -0.072	inactive: 0.002	inactive: -0.04	inactive: -0.043	inactive: -0.033	inactive: -0.086	inactive: -0.026	inactive: 0.002	inactive: 0.072	inactive: 0.069	inactive: -0.106	inactive: -0.032
UBE2T (UniProt Q9NPD8)	inactive: -0.007	inactive: 0.039	inactive: -0.071	inactive: 0.008	inactive: -0.05	inactive: -0.023	inactive: 0.025	inactive: 0	inactive: -0.107	inactive: 0.038	inactive: -0.029	inactive: -0.006	inactive: -0.092	inactive: -0.048	inactive: 0.048	inactive: 0.011	inactive: 0.057	inactive: 0.015	inactive: -0.202	inactive: -0.026
TUSC3 isoform 2 (UniProt Q13454)	inactive: 0.012	inactive: -0.073	inactive: -0.032	inactive: 0.037	inactive: 0.038	inactive: -0.016	inactive: -0.086	inactive: -0.011	inactive: 0.048	inactive: -0.017	inactive: 0.051	inactive: 0.004	inactive: 0.036	inactive: -0.033	inactive: 0.053	inactive: -0.06	inactive: -0.01	inactive: 0.012	inactive: 0.045	inactive: -0.023
UBAP2L isoform 1 (UniProt Q14157)	inactive: -0.006	inactive: -0.043	inactive: 0.013	inactive: -0.134	inactive: 0.058	inactive: -0.056	inactive: 0.064	inactive: 0.034	inactive: 0.076	inactive: 0.07	inactive: 0.071	inactive: 0.076	inactive: -0.064	inactive: 0.039	inactive: -0.043	inactive: 0.041	inactive: -0.022	inactive: -0.031	inactive: -0.012	inactive: 0.03
U2AF1 isoform 2 (UniProt Q01081)	inactive: 0.037	inactive: -0.06	inactive: -0.017	active: -1.31	inactive: -0.056	inactive: 0.058	inactive: 0.01	inactive: -0.06	inactive: 0.034	inactive: -0.099	inactive: -0.174	inactive: -0.017	inactive: 0.058	inactive: -0.096	inactive: -0.013	inactive: -0.021	inactive: 0.039	inactive: -0.034	inactive: -0.039	inactive: -0.093
TYMS (UniProt P04818)	inactive: 0	inactive: 0.021	inactive: -0.042	inactive: -0.076	inactive: -0.033	inactive: -0.016	inactive: 0.073	inactive: -0.005	inactive: -0.05	inactive: 0.115	inactive: -0.069	inactive: 0.015	inactive: -0.032	inactive: 0.084	inactive: -0.021	inactive: 0.045	inactive: 0.025	inactive: -0.003	inactive: 0.008	inactive: 0.002
UBAP2L isoform 5 (UniProt Q14157)	inactive: -0.044	inactive: -0.02	inactive: -0.003	inactive: -0.015	inactive: 0.005	inactive: 0.007	inactive: 0.011	inactive: -0.003	inactive: -0.028	inactive: 0.024	inactive: 0.017	inactive: -0.004	inactive: -0.013	inactive: 0.001	inactive: -0.016	inactive: -0.016	inactive: 0.013	inactive: -0.007	inactive: -0.029	inactive: 0.023
UBE2E3 (UniProt Q969T4)	inactive: -0.029	inactive: -0.029	inactive: -0.126	inactive: 0.023	inactive: -0.113	inactive: 0.025	inactive: -0.028	inactive: -0.004	inactive: -0.131	inactive: 0.056	inactive: -0.007	inactive: -0.052	inactive: -0.155	inactive: -0.106	inactive: 0.051	inactive: 0.103	inactive: 0.063	inactive: -0.016	inactive: 0.023	inactive: -0.007
UBE2H (UniProt P62256)	inactive: -0.099	inactive: 0.044	inactive: -0.006	inactive: -0.034	inactive: -0.001	inactive: -0.014	inactive: 0.004	inactive: 0.05	inactive: -0.013	inactive: 0.022	inactive: 0	inactive: -0.048	inactive: -0.054	inactive: -0.05	inactive: 0.029	inactive: 0	inactive: 0.1	inactive: 0.044	inactive: -0.123	inactive: 0.02

An excerpt from above with just log2 fold change (silmitasertib), log2 fold change [8] and log2 fold change (citarinostat).
Target	log2 fold change (silmitasertib)	log2 fold change [8]	log2 fold change (citarinostat)
TXNRD1 (UniProt Q16881)	inactive: -0.036	inactive: -0.077	inactive: 0.017
UBAP2L isoform 1 (UniProt Q14157)	inactive: -0.031	inactive: -0.064	inactive: -0.022
